The list shows a part of the results.
biological target: OsWRKY34 (Oryza sativa, UniProt Q0JBA9 1-250); assay: protein-binding microarray (RPBM); PBS, 2% BSA, 51.3 ng/ul salmon testes DNA, 50 uM zinc acetate, 200 nM TF, 25 C, 1 h; high values mean tight binding; conditions: protein: recombinant; tags: N-terminal polyhistidine and DsRed monomer fusion (pET32a); label: CyDye5-dUTP incorporated in the synthesized complementary strand; 3' TTTTT single-stranded linker to array surface; dsDNA, one strand shown
How it was run: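 In PBS with 2% BSA, salmon testes DNA and 50 µM zinc acetate, 200 nM protein was incubated on a custom Agilent array at 25 °C for 1 h and then washed off. The array had been made double-stranded by primer extension with Cy5-dUTP and blocked with 2% BSA. The proteins were transcription factors fused N-terminally to polyhistidine and DsRed, expressed in E. coli BL21-CodonPlus and purified on Ni–NTA. The binding signal is per-feature fluorescence intensity (arbitrary units) from an Axon 4000B scanner.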

Protein sequences, listed by entry. Tags and fused reporters are not part of them.
UniProt Q0JBA9, entry or part of it: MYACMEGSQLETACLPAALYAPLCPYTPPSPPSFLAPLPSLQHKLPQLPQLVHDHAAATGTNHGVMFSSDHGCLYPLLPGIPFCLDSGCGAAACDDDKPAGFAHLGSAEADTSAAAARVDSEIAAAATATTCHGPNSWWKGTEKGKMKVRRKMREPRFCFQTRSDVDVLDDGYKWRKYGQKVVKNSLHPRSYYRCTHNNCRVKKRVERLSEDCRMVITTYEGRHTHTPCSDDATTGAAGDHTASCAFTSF

Row | Sequence | binding signal
1 | CATCGCTCTGACGGTATCTTGGTCGACACATCGATTGCATCGGAGTCACCTAGTGCAG | 8250 fluorescence intensity (a.u.)
2 | TCGAAACCTCGCTCCACTTCAATTTAATTCATCATTCTAACGGAGTCACCTAGTGCAG | 10600 fluorescence intensity (a.u.)
3 | AGTAGTATTATTTTGTTCCAACTTTTTATTTAGGTTTTGTCGGAGTCACCTAGTGCAG | 9790 fluorescence intensity (a.u.)
4 | ACTTCGAGTGTGTTTGTCGTCTCGCCTCTGCTGCTTCCTTCGGAGTCACCTAGTGCAG | 10200 fluorescence intensity (a.u.)
5 | ATCCAGTCTCTCTATTAGCTTGTATCCCTATTCTTATTCTCGGAGTCACCTAGTGCAG | 10100 fluorescence intensity (a.u.)
6 | ATTCTTCAAGCAGGCTTGCTTGCAGTCATCTCTATTTTTTCGGAGTCACCTAGTGCAG | 8420 fluorescence intensity (a.u.)
7 | CACACCTCCACCAACTAGCTGCCACGCTCGCTTTCCCCTGCGGAGTCACCTAGTGCAG | 9450 fluorescence intensity (a.u.)
8 | GCAGCGCTCGTCTCTCTCTGTCTCTCCACTCTCTTCTCTCCGGAGTCACCTAGTGCAG | 10100 fluorescence intensity (a.u.)
9 | TACTGCCTAAACCAGGCCTAATTGCCATGCCTCCAAACTACGGAGTCACCTAGTGCAG | 8530 fluorescence intensity (a.u.)
10 | GTTGCAATGTTGATCTGGTTTACTTCCCAACTTTTTCTTCCGGAGTCACCTAGTGCAG | 10500 fluorescence intensity (a.u.)
11 | TTATGGATGTCAGCCGGCCCAACAAACCTTTGACCAACCTCGGAGTCACCTAGTGCAG | 9420 fluorescence intensity (a.u.)
12 | CCCGCCGTTACCATCCTCGCCGCCGCCTTCCATCCCCGCCCGGAGTCACCTAGTGCAG | 10700 fluorescence intensity (a.u.)
13 | CCTATTGTTGTTGCTGCTTGATGCTTGCTGTTACCCCTGACGGAGTCACCTAGTGCAG | 8580 fluorescence intensity (a.u.)
14 | AGTCATTCTAACATTTCCCACATTCATATTGATGTTAATGCGGAGTCACCTAGTGCAG | 8760 fluorescence intensity (a.u.)
15 | ACCTATTATTGCATGATTAATTAAGTATTTACTATTTTTTCGGAGTCACCTAGTGCAG | 10800 fluorescence intensity (a.u.)
16 | ATCACAAGAGATTGTCACATGGCCCATGCACGCTATCGCACGGAGTCACCTAGTGCAG | 8880 fluorescence intensity (a.u.)
17 | ATCCACCACGCAACCTTGCCGCCGCACTTGCACATGATGGCGGAGTCACCTAGTGCAG | 10600 fluorescence intensity (a.u.)
18 | ATCCACCTTCTCATCTAATCGCCATCCCATCCCACCAATTCGGAGTCACCTAGTGCAG | 11000 fluorescence intensity (a.u.)
19 | AACGTAATCTTCTCATCCCACCGACGGATCGATCGATCCACGGAGTCACCTAGTGCAG | 8520 fluorescence intensity (a.u.)
20 | CCCGTCCGAGTTTCAACCCTTTGACTCGAGCGCACGCTCCCGGAGTCACCTAGTGCAG | 11700 fluorescence intensity (a.u.)
21 | CAATATGAGATGGTGGGCACTTTTTTTTGTCACAAAATAACGGAGTCACCTAGTGCAG | 8060 fluorescence intensity (a.u.)

Shown as tab-separated lines: part of the list above.
Row	Sequence	binding signal
9	TACTGCCTAAACCAGGCCTAATTGCCATGCCTCCAAACTACGGAGTCACCTAGTGCAG	8530 fluorescence intensity (a.u.)
10	GTTGCAATGTTGATCTGGTTTACTTCCCAACTTTTTCTTCCGGAGTCACCTAGTGCAG	10500 fluorescence intensity (a.u.)

Next part.

Row | Sequence | binding signal
22 | TCCTTGTTGGTTCAATATAGAACTCTATTTGTCCTTTCTTCGGAGTCACCTAGTGCAG | 9740 fluorescence intensity (a.u.)
23 | ACTGGCTTGCTCTACTCTATTATTCCCTTTGCATTGCATTCGGAGTCACCTAGTGCAG | 8240 fluorescence intensity (a.u.)
24 | ATGTAATGACATATTAACATCGTGAGAAAAACTTACCTAGCGGAGTCACCTAGTGCAG | 12400 fluorescence intensity (a.u.)
25 | AAGAATTTTGCTTTGGTTCAACCTTTTTTCTCTTCTTTCTCGGAGTCACCTAGTGCAG | 11300 fluorescence intensity (a.u.)
26 | CCCTCGCTACGGCTCATCTTGTTTTGTTTTGGTTGACCTTCGGAGTCACCTAGTGCAG | 11200 fluorescence intensity (a.u.)
27 | CCTGCCGACCACCGCGCATGCGTCCCTGCCGTCCTGGTATCGGAGTCACCTAGTGCAG | 8530 fluorescence intensity (a.u.)
28 | AATGAGAGCTTAGGGGTTAGGGCCTGTTTTTTTTTTTCATCGGAGTCACCTAGTGCAG | 10100 fluorescence intensity (a.u.)
29 | AATCGGCGCCAATTCAGCTTGTTTTGTGGAACTGTGTGTTCGGAGTCACCTAGTGCAG | 10300 fluorescence intensity (a.u.)
30 | CCGCGTGTGCCTCCCGCCGCCGCCGCTGTGGTCTCCTCCACGGAGTCACCTAGTGCAG | 9180 fluorescence intensity (a.u.)
31 | TTCTTCGTGGAGGAGGGGATATGGGTTGGCACCGGTGGCGCGGAGTCACCTAGTGCAG | 13100 fluorescence intensity (a.u.)
32 | AGTTTTTGTTGGTTCTATGTGTCATCGTCGTCGATATCCACGGAGTCACCTAGTGCAG | 12400 fluorescence intensity (a.u.)
33 | CACGTTTAGTTCCATCGTGTGTTCTGTCCTCTGGCAAGCGCGGAGTCACCTAGTGCAG | 8170 fluorescence intensity (a.u.)
34 | ACTCCTCGTTGATCTGGATCTTGGAGAGATCCTCCTCGCCCGGAGTCACCTAGTGCAG | 8050 fluorescence intensity (a.u.)
35 | TGTGGTGGATGCTGCTCTAACTGCCTGTTCCCATGGAAGACGGAGTCACCTAGTGCAG | 8720 fluorescence intensity (a.u.)
36 | ATCCTAATTTTTAGCCTAATTATTCTTCTGGCCGCTAATACGGAGTCACCTAGTGCAG | 9900 fluorescence intensity (a.u.)
37 | CGGCCTATAAGTACTCCATCCCGCCGGCCGGCCGGTGACTCGGAGTCACCTAGTGCAG | 9830 fluorescence intensity (a.u.)
38 | ATGTGTGAGGATGGTGGTTTGAAAGAGTTCATTACCTGGACGGAGTCACCTAGTGCAG | 9180 fluorescence intensity (a.u.)
39 | TGTCGTTCCACCGCTCCCGCGGCAGCGCGTCTCCTGCAGGCGGAGTCACCTAGTGCAG | 9840 fluorescence intensity (a.u.)
40 | TTTTGTTAGGTCTTCTCCTCCTCCGCCGTCTCGTGCGCCGCGGAGTCACCTAGTGCAG | 8870 fluorescence intensity (a.u.)
41 | CCGTTCGATGACCATACTCTATTTCACAACGCTGTTGACACGGAGTCACCTAGTGCAG | 11100 fluorescence intensity (a.u.)
42 | GACAAATCACCATCTACTTCATATATGCAGGCAATTTTTACGGAGTCACCTAGTGCAG | 11100 fluorescence intensity (a.u.)
